Here are results for one molecule from patent US20230382991A1.

No constants are given. Whether binding was seen depends on the method and setting. A result given as binding can be weak or reduced; the word gives no strength.

For this assay, the target named is cynomolgus macaque LILRB1 on dendritic cell subsets of injected macaques (cynomolgus macaque). Kind of assay: ex vivo staining of blood pDC of the injected macaque with Alexa 647-labelled B1.2.2 (clone 20G10); y axis '% of positive cells'.

B1: B1.2.2 monoclonal antibody (antibody, V domains shown)
VH: EVQLVESGGGLVKPGGSLKLSCAASGFTFSDYGMHWVRQAPEKGLEWVAYISSGSSTSYYADTVKGRFTISRDDAKNTLFLQMTSLRSEDTAMYYCARPGSNWDVYYAMDYWGQGTSVTVSS
VL: DIVLTQSPASLAVSLGQRATISCRASQSVSTSSYSYMHWYQQKPGQPPKLLIKNASNLESGVPARFSGSGSGTDFTLNIHPVEEEDTATYYCQHSWEIPFTFGGGTKLEIK
For B1, the binding result is reported as “binds”.
